Residue numbers refer to the chain shown, from its start. The exact form of at least one protein or probe is not confirmed. The comparison behind a weaker result is the experiment's own reference, which may not be listed here. Protein sequences can lack the tags named with them.

The target of data set [1] is T1, RefZ L153R-His6 (Bacillus subtilis 168) (UniProt O34970).
T1 sequence (looked up, limits assumed): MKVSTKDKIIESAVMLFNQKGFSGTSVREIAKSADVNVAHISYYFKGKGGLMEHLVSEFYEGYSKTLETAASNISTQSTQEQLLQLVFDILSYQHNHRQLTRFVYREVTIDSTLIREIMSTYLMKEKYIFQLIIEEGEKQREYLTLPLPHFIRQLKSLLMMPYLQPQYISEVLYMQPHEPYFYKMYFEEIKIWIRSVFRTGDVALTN
Put plainly: BLI. Conditions: within 2-fold of WT, P = 0.003; recombinant protein; protein details: C-terminal His6 (pET-24b NheI/XhoI); label: 5' biotin on S27 strand.

Data set [2] concerns the target T2, RefZ R116W-His6 (Bacillus subtilis 168) (UniProt O34970).
T2 sequence (looked up, limits assumed): T1 sequence (looked up, limits assumed) with R116W, R153L
Put plainly: BLI. Conditions: within 2-fold of WT, P = 0.05; recombinant protein; protein details: C-terminal His6 (pET-24b NheI/XhoI); label: 5' biotin on S27 strand.

In the case of “GCCTTTTCGTTTTGAACAAACGTTTGATTAAAACAAATAGC (double strand) [RBML1 41-bp]”, the binding result in data set [1] and in data set [2] was “binds more weakly” throughout.

Source of the values: article PMC6657595, “A DNA-Binding Protein Tunes Septum Placement during Bacillus subtilis Sporulation”.
